In paper PMC11904782:
These are yes or no findings as the source states them, for the method shown. In cells and extracts the contact can be indirect. A yes stands for co-enrichment or nearness to the bait. Other partners may have been found.

By UniProt entry, the sequences of proteins in these tests, tags left out.
UniProt O14497: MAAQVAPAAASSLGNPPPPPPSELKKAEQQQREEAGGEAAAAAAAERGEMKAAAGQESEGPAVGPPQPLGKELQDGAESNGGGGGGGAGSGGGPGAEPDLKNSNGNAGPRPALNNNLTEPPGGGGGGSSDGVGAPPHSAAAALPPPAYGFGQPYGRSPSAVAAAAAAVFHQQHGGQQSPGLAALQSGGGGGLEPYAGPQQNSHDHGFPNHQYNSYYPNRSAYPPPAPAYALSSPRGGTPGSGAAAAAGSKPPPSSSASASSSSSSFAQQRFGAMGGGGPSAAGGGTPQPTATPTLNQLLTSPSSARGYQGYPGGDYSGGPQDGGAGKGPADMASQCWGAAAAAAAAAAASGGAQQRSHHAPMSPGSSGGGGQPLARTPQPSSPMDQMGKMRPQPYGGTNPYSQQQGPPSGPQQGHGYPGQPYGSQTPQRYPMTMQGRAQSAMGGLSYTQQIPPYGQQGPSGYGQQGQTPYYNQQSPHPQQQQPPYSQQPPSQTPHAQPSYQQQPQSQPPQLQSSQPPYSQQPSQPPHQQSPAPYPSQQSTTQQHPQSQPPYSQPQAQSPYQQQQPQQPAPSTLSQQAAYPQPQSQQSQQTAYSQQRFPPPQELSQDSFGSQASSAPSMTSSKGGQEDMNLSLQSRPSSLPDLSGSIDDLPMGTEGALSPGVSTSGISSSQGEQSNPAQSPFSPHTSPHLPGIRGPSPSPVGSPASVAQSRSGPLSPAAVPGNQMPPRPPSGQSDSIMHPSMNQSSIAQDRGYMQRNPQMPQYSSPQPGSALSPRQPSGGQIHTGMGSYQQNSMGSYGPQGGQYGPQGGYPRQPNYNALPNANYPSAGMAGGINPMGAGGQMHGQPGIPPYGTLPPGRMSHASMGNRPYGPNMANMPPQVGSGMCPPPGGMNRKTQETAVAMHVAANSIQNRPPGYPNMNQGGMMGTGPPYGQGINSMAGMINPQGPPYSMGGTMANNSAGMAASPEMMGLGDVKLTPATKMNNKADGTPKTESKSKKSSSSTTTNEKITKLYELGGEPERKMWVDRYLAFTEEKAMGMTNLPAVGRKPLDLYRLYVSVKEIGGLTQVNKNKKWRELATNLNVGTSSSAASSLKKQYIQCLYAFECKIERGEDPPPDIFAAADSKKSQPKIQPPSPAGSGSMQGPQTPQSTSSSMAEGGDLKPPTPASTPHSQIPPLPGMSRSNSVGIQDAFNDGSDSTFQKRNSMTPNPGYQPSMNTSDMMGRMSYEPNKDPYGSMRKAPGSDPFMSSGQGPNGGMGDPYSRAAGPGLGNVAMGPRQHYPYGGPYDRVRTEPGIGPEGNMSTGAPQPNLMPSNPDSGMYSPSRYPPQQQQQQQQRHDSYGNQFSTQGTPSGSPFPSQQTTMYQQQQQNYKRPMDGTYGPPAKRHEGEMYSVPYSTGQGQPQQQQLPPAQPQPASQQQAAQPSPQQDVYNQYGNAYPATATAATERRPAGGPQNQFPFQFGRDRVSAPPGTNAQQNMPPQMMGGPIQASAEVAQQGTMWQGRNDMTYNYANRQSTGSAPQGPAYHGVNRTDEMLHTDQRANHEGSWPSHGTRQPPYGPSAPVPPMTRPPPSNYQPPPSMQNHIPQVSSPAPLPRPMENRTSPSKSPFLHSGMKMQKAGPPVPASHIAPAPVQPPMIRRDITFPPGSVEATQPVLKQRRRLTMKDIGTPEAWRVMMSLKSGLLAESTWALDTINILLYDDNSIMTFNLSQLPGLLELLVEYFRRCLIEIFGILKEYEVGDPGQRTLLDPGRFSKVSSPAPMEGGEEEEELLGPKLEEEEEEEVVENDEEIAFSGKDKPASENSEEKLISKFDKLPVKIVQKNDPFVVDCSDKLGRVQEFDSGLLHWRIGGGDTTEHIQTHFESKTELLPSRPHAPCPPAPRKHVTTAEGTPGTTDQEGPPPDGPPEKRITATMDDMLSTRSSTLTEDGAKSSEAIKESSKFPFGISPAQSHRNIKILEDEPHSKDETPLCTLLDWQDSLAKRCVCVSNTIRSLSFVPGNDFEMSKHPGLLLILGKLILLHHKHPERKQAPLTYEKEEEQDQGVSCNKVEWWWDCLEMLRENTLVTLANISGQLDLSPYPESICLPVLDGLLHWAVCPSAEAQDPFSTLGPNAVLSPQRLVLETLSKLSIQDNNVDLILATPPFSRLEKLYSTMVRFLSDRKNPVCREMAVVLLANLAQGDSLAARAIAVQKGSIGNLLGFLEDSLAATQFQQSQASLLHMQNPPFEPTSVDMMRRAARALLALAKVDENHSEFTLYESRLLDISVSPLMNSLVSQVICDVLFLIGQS
UniProt P51532: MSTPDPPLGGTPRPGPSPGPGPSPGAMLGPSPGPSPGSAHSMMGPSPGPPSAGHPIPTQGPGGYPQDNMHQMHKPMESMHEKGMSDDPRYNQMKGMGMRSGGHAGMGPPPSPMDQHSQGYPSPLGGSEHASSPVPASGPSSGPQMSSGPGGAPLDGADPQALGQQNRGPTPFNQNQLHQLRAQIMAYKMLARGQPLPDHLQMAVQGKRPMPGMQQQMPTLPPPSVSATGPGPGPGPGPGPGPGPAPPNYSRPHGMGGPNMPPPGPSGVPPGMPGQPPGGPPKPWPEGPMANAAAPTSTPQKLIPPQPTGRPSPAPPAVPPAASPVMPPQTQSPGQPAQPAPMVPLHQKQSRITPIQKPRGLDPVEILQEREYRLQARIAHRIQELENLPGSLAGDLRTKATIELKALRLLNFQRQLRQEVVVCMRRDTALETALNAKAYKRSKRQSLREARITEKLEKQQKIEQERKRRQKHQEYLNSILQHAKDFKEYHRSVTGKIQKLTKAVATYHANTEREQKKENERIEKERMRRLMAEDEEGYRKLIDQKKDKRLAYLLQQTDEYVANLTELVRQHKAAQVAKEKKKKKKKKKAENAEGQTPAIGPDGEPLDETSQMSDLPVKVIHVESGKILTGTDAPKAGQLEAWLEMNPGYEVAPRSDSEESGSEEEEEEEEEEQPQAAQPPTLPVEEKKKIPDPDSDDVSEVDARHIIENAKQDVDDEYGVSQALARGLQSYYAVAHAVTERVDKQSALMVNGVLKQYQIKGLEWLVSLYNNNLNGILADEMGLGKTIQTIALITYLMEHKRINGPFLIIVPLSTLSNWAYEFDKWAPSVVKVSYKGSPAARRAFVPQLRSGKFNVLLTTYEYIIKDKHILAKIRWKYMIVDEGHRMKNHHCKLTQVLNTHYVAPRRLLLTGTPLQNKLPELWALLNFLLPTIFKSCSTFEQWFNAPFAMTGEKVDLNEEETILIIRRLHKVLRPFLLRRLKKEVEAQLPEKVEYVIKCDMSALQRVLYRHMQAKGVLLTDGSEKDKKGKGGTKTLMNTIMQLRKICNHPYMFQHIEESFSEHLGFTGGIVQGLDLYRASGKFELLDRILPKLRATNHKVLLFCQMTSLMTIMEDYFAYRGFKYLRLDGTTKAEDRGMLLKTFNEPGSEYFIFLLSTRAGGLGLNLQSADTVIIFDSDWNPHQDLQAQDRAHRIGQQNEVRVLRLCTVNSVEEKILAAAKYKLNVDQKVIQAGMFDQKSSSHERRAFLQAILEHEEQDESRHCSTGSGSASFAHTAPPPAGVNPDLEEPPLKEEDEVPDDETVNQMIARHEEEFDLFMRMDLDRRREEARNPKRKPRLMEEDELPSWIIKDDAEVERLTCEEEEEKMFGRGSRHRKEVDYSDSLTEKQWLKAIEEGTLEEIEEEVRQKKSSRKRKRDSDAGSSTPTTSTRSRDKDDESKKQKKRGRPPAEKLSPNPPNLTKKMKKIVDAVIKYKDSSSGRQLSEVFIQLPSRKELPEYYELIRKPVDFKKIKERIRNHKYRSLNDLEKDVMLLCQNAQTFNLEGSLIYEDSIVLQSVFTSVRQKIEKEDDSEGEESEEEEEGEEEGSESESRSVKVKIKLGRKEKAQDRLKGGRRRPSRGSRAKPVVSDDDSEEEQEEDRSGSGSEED
UniProt Q52LJ0: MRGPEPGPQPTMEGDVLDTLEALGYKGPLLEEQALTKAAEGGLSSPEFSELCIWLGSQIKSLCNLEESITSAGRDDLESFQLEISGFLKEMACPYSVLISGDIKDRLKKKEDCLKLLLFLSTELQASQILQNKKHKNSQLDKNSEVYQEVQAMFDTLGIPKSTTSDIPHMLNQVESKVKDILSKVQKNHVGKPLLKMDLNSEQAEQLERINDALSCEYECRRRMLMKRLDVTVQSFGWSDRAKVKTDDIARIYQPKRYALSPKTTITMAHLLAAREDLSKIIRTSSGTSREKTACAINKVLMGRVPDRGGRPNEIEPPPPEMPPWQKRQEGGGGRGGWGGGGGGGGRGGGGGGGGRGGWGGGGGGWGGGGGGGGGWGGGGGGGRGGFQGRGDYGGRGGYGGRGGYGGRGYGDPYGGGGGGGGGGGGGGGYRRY
UniProt O96019: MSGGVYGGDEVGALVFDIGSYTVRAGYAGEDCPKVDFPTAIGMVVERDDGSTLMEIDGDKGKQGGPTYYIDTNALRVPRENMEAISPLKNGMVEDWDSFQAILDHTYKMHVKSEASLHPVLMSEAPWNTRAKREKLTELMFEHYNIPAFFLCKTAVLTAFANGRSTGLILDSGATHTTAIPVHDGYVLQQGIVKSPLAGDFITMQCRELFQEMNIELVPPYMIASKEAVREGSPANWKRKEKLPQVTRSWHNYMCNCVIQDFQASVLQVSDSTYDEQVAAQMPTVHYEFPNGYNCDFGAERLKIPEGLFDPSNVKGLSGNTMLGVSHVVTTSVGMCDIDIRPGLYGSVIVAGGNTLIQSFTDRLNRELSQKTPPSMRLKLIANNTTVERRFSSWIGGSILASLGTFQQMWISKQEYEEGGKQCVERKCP

Target: AT-interacting domain-rich protein 1A (ARID1A), endogenous (human (endogenous in HEK293 and HCT116)) (UniProt O14497)
Assay: affinity purification with mass spectrometry; endogenous ARID1A immunoprecipitated with anti-ARID1A (C-7) on protein A/G magnetic beads from HEK293 nuclear extract (300 mM NaCl, 0.5% NP-40, DNase, RNase), 2 h 4°C; eluted with 1.2 M NaCl; silver-stained bands analysed by nanoflow HPLC-MS/MS

| binding | Substance |
| --- | --- |
| binds | SMARCA4 (from UniProt P51532 1-1647) |
| binds | FAM98B (from UniProt Q52LJ0 1-433) |
| binds | actin-like 6A (from UniProt O96019 1-429) |
